Some of the results follow. Single values are uncertain, as repeats are few or missing.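 The apoptosis fraction was the count of cleaved-PARP antibody-stained nuclei relative to all DNA-stained nuclei, imaged in 1,536-well plates. Screening doses were set so most cells survived, and baseline and induced cleaved-PARP levels vary greatly across cell lines.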
Key:
Assay in all cases: cleaved PARP positive nuclei fraction relative to DMSO control; melanoma cells; higher = more apoptosis
Details in all cases: library dose: low library concentration; 72 h
WM115 = tested on: WM115
WM1716 = tested on: WM1716
WM1745 = tested on: WM1745
WM3526 = tested on: WM3526
WM3619 = tested on: WM3619
WM451Lu = tested on: WM451Lu

Structure (SMILES) | cleaved PARP positive nuclei fraction (WM115) [%] | cleaved PARP positive nuclei fraction (WM1716) [%] | cleaved PARP positive nuclei fraction (WM1745) [%] | cleaved PARP positive nuclei fraction (WM3526) [%] | cleaved PARP positive nuclei fraction (WM3619) [%] | cleaved PARP positive nuclei fraction (WM451Lu) [%]
C=CCNC1=C2C[C@@H](C)C[C@H](OC)[C@H](O)[C@@H](C)/C=C(\C)[C@H](OC(N)=O)[C@@H](OC)/C=C\C=C(/C)C(=O)NC(=CC1=O)C2=O [Tanespimycin] + COC(=O)c1sccc1S(=O)(=O)Nc1ccc(Nc2ccccc2)cc1OC [GSK0660] (first compound 0.002 µM, partner dose 1 µM) | 124 | 87.1 | 83.2 | 129 | 111 | 34.1
C#Cc1cccc(Nc2ncnc3cc(OCCOC)c(OCCOC)cc23)c1 [erlotinib] + COc1cc2ncnc(Nc3ccc(Oc4ccccc4)cc3)c2cc1OC [SrcI1] (first compound 0.8 µM, partner dose 2 µM) | 176 | 63 | 142 | 80.1 | 82.8 | 145
Cc1cc(N2CCOCC2)cc2[nH]c(-c3c(NC[C@@H](O)c4cccc(Cl)c4)cc[nH]c3=O)nc12 + COc1ccc2c(c1)CCC1C2CCC2(C)C(NCCCCCCN3C(=O)C=CC3=O)CCC12 [U73122] (first compound 0.2 µM, partner dose 0.4 µM) | 131 | 26.4 | 143 | 61.2 | 84.2 | 64.5
Cn1cncc1[C@@](N)(c1ccc(Cl)cc1)c1ccc2c(c1)c(-c1cccc(Cl)c1)cc(=O)n2C [tipifarnib] + O=c1cc(-c2cccc3c2Sc2ccccc2S3)oc(N2CCOCC2)c1 [KU55933] (first compound 0.01 µM, partner dose 1 µM) | 201 | 231 | 101 | 45.2 | 81.9 | 33.7
C=CCn1c(=O)c2cnc(Nc3ccc(N4CCN(C)CC4)cc3)nc2n1-c1cccc(C(C)(C)O)n1 + Cc1ccc(NC(=O)c2cccc(N(C)C)c2)cc1NC(=O)c1ccc(O)cc1 [ZM336372] (first compound 0.02 µM, partner dose 2 µM) | 145 | 111 | 105 | 302 | 173 | 151
Cc1cc(N2CCOCC2)cc2[nH]c(-c3c(NC[C@@H](O)c4cccc(Cl)c4)cc[nH]c3=O)nc12 + O=c1cc(-c2cccc3c2Sc2ccccc2S3)oc(N2CCOCC2)c1 [KU55933] (first compound 0.2 µM, partner dose 1 µM) | 134 | 131 | 111 | 84.9 | 107 | 152
O=C(Nc1cccc(Cl)c1)Nc1ncc(CCNc2ncnc3ccsc23)s1 + CN(NC(=O)CC(=O)NN(C)C(=S)c1ccccc1)C(=S)c1ccccc1 [STA4783] (first compound 0.0008 µM, partner dose 0.006 µM) | 389 | 125 | 174 | 125 | 205 | 142
C[C@]1(c2nc3c(C(N)=O)cccc3[nH]2)CCCN1 [Veliparib] + NC(=O)Nc1cc(-c2cccc(F)c2)sc1C(=O)N[C@H]1CCCNC1 [AZD7762] (first compound 1.4 µM, partner dose 0.02 µM) | 59.5 | 151 | 89.5 | 70.5 | 244 | 123
Cn1cncc1[C@@](N)(c1ccc(Cl)cc1)c1ccc2c(c1)c(-c1cccc(Cl)c1)cc(=O)n2C [tipifarnib] + Cn1cc(/C=C2\C(=O)Nc3cccnc32)c2ccccc21 [GW441756] (first compound 0.01 µM, partner dose 0.4 µM) | 184 | 180 | 111 | 70 | 184 | 198
C#Cc1cccc(Nc2ncnc3cc(OCCOC)c(OCCOC)cc23)c1 [erlotinib] + Cn1nnc2c(C(N)=O)ncn2c1=O [temozolomide] (first compound 0.8 µM, partner dose 2 µM) | 105 | 82.4 | 97.3 | 106 | 92.5 | 47.4
Cn1nnc2c(C(N)=O)ncn2c1=O [temozolomide] + N#Cc1c(O)c2c(-c3ccc(-c4ccccc4O)cc3)csc2[nH]c1=O [A769662] (first compound 2 µM, partner dose 2 µM) | 68.7 | 90.7 | 92.8 | 60.5 | 117 | 56.7
C=CCNC1=C2C[C@@H](C)C[C@H](OC)[C@H](O)[C@@H](C)/C=C(\C)[C@H](OC(N)=O)[C@@H](OC)/C=C\C=C(/C)C(=O)NC(=CC1=O)C2=O [Tanespimycin] + Oc1nc(-c2ccc(C(F)(F)F)cc2)nc2c1CSCC2 [XAV939] (first compound 0.002 µM, partner dose 2 µM) | 155 | 91.8 | 150 | 77.3 | 124 | 66.3
O=C(CCCCCCC(=O)Nc1ccccc1)NO [vorinostat] + CO[C@@H]1[C@H](N(C)C(=O)c2ccccc2)C[C@H]2O[C@]1(C)n1c3ccccc3c3c4c(c5c6ccccc6n2c5c31)C(=O)NC4 [Midostaurin] (first compound 0.08 µM, partner dose 0.08 µM) | 198 | 133 | 110 | 64.2 | 111 | 140
Cn1c(Nc2ccc(C(F)(F)F)cc2)nc2cc(Oc3ccnc(-c4ncc(C(F)(F)F)[nH]4)c3)ccc21 + COc1cc(Nc2ncc(F)c(Nc3ccc4c(n3)NC(=O)C(C)(C)O4)n2)cc(OC)c1OC [Tamatinib] (first compound 0.08 µM, partner dose 0.4 µM) | 609 | 41.5 | 146 | 77 | 103 | 39.5
C[C@@H]1CCN(C(=O)CC#N)C[C@@H]1N(C)c1ncnc2[nH]ccc12 + Oc1cc(-c2nc(-c3ccccc3)[nH]c2-c2ccncc2)ccc1Cl [L779450] (first compound 1 µM, partner dose 0.2 µM) | 160 | 198 | 112 | 98 | 77.5 | 161
CC1(C)NC(=O)N(c2ccc([N+](=O)[O-])c(C(F)(F)F)c2)C1=O [nilutamide] + CO[C@@H]1[C@H](N(C)C(=O)c2ccccc2)C[C@H]2O[C@]1(C)n1c3ccccc3c3c4c(c5c6ccccc6n2c5c31)C(=O)NC4 [Midostaurin] (first compound 1 µM, partner dose 0.08 µM) | 53.6 | 41.9 | 748 | 55.1 | 89.8 | 49.7
C#Cc1cccc(Nc2ncnc3cc(OCCOC)c(OCCOC)cc23)c1 [erlotinib] + CC(C)CCN1c2nc(Nc3cc(F)c(O)c(F)c3)ncc2N(C)C(=O)C1C [BID1870] (first compound 0.8 µM, partner dose 0.2 µM) | 113 | 115 | 113 | 154 | 79 | 63
COCC[n+]1c2c(n(Cc3cnccn3)c1C)C(=O)c1ccccc1C2=O + COc1cc2c(Oc3ccc4[nH]c(C)cc4c3F)ncnc2cc1OCCCN1CCCC1 [cediranib] (first compound 0.0004 µM, partner dose 0.4 µM) | 34.5 | 91.9 | 84.1 | 64 | 107 | 192
CC(C)(C)c1cnc(CSc2cnc(NC(=O)C3CCNCC3)s2)o1 + COc1ccc2c(c1)CCC1C2CCC2(C)C(NCCCCCCN3C(=O)C=CC3=O)CCC12 [U73122] (first compound 0.01 µM, partner dose 0.4 µM) | 40.4 | 148 | 113 | 69.5 | 79 | 105
C[C@]1(c2nc3c(C(N)=O)cccc3[nH]2)CCCN1 [Veliparib] + Cc1cc([N+](=O)[O-])ccc1NS(=O)(=O)c1cc(Cl)ccc1Cl [FH535] (first compound 1.4 µM, partner dose 1 µM) | 53.6 | 49.9 | 115 | 35.2 | 90.4 | 175
CC(C)(C)c1cnc(CSc2cnc(NC(=O)C3CCNCC3)s2)o1 + O=C(O)C(=O)Nc1sc2c(c1C(=O)O)CCNC2 [TCS401] (first compound 0.01 µM, partner dose 1.66667 µM) | 144 | 29.8 | 117 | 117 | 80.8 | 147
COCC[n+]1c2c(n(Cc3cnccn3)c1C)C(=O)c1ccccc1C2=O + CCc1ccc(CCOc2ccc(CC3SC(=O)NC3=O)cc2)nc1 [pioglitazone] (first compound 0.0004 µM, partner dose 2 µM) | 197 | 117 | 90.5 | 64.2 | 70.2 | 667
C=CCNC1=C2C[C@@H](C)C[C@H](OC)[C@H](O)[C@@H](C)/C=C(\C)[C@H](OC(N)=O)[C@@H](OC)/C=C\C=C(/C)C(=O)NC(=CC1=O)C2=O [Tanespimycin] + CCc1ccc(CCOc2ccc(CC3SC(=O)NC3=O)cc2)nc1 [pioglitazone] (first compound 0.002 µM, partner dose 2 µM) | 57.4 | 228 | 89.8 | 73.5 | 92.6 | 188
CC1(C)NC(=O)N(c2ccc([N+](=O)[O-])c(C(F)(F)F)c2)C1=O [nilutamide] + NCC(=O)Nc1ccc(-n2nc(C(F)(F)F)cc2-c2ccc3c(ccc4ccccc43)c2)cc1 [OSU03012] (first compound 1 µM, partner dose 1 µM) | 51 | 75.1 | 88 | 100 | 104 | 104
CC1(C)NC(=O)N(c2ccc([N+](=O)[O-])c(C(F)(F)F)c2)C1=O [nilutamide] + COc1cc2ncnc(Nc3ccc(Oc4ccccc4)cc3)c2cc1OC [SrcI1] (first compound 1 µM, partner dose 2 µM) | 134 | 61.9 | 207 | 72.9 | 75.8 | 47.8
C[C@]1(c2nc3c(C(N)=O)cccc3[nH]2)CCCN1 [Veliparib] + COC(=O)c1sccc1S(=O)(=O)Nc1ccc(Nc2ccccc2)cc1OC [GSK0660] (first compound 1.4 µM, partner dose 1 µM) | 536 | 84.8 | 105 | 58 | 75.2 | 128

Single records, as listed above.
C=CCNC1=C2C[C@@H](C)C[C@H](OC)[C@H](O)[C@@H](C)/C=C(\C)[C@H](OC(N)=O)[C@@H](OC)/C=C\C=C(/C)C(=O)NC(=CC1=O)C2=O [Tanespimycin] + Oc1nc(-c2ccc(C(F)(F)F)cc2)nc2c1CSCC2 [XAV939] (first compound 0.002 µM, partner dose 2 µM) as listed: cleaved PARP positive nuclei fraction (WM115) [%]: 155; cleaved PARP positive nuclei fraction (WM1716) [%]: 91.8; cleaved PARP positive nuclei fraction (WM1745) [%]: 150; cleaved PARP positive nuclei fraction (WM3526) [%]: 77.3; cleaved PARP positive nuclei fraction (WM3619) [%]: 124; cleaved PARP positive nuclei fraction (WM451Lu) [%]: 66.3
Cn1nnc2c(C(N)=O)ncn2c1=O [temozolomide] + N#Cc1c(O)c2c(-c3ccc(-c4ccccc4O)cc3)csc2[nH]c1=O [A769662] (first compound 2 µM, partner dose 2 µM) as listed: cleaved PARP positive nuclei fraction (WM115) [%]: 68.7; cleaved PARP positive nuclei fraction (WM1716) [%]: 90.7; cleaved PARP positive nuclei fraction (WM1745) [%]: 92.8; cleaved PARP positive nuclei fraction (WM3526) [%]: 60.5; cleaved PARP positive nuclei fraction (WM3619) [%]: 117; cleaved PARP positive nuclei fraction (WM451Lu) [%]: 56.7

— the supplement of paper PMC4604168 (melanoma cell lines)
